What all share (assay): DAPPL (digital affinity profiling via proximity ligation, sequencing)
Holding throughout (settings): 10 mM Tris-HCl pH 7.5, 50 mM NaCl, 1 mM DTT, 4% glycerol, room temperature, 30 min; GST-TFs on glutathione beads, 16-mer random dsDNA library, 0.1% …; high values mean tight binding; double strand, one strand shown; scale: fold enrichment (6-mer frequency, TF over GST control)

Amino acid sequences for entries named in this document (tags omitted). A change or cut given only in a name is not applied to a line headed by its entry.
UniProt Q01892: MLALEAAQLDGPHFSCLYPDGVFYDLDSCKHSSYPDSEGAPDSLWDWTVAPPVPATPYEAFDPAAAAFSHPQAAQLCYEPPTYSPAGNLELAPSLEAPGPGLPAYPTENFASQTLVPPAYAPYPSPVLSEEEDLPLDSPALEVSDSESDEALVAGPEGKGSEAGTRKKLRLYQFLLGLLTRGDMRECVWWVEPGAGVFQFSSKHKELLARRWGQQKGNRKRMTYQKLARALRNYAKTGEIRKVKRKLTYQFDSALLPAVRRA

Assay [1] deals with SPIB (UniProt Q01892).
Assay [2] has as its target T1, ETV3L (UniProt Q6ZN32).
T1 sequence: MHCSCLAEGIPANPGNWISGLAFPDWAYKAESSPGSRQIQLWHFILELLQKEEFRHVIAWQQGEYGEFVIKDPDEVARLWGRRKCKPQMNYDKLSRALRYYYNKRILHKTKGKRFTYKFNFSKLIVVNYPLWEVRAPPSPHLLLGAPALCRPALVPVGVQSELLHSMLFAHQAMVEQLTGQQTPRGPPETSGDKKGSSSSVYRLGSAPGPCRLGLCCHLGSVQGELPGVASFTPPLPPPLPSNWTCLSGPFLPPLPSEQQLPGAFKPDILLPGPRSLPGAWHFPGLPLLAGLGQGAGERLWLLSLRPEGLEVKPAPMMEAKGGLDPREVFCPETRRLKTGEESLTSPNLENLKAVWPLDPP

Assay [3] concerns the target T2, EHF (UniProt Q9NZC4).
T2 sequence: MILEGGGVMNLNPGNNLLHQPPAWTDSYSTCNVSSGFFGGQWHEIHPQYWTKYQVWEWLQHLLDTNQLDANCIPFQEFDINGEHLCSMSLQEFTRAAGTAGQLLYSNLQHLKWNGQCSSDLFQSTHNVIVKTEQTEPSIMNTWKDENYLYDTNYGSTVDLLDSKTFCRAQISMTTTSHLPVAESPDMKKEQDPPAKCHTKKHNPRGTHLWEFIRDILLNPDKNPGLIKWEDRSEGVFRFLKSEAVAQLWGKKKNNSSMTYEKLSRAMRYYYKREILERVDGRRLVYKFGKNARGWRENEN

Only a part is listed here, and it is no random draw. At the low end of the ranking the order means little.

Regarding GCTACG, the binding signal in assay [1] and in assay [2] was 1.16 in each case. In the case of GGTATC, the binding signal in assay [3] amounted to 0.993; in assay [2] it was 1.02. As for TCATGT, the binding signal is 0.997 in assay [1] and 1.15 in assay [2].

Consider TAAAAA, for which the binding signal in assay [2] was 1.37. For the sequence CCCATC, the binding signal in assay [3] was determined as 1.17; in assay [1] it was 1.18; in assay [2], 1.15. Sequence CCACAT yielded a binding signal in assay [3] of 1.21. TTGTCA: the binding signal in assay [1] came to 1.21; in assay [2], 1.17. In assay [2], CTATGT registered a binding signal of 1.06. On to ATGGCA, for which the binding signal in assay [3] was 1.35; in assay [2] it was 1.2. The like results for CGCACG were, in that order, 0.983 and 1.01.

Take CACAAA: the binding signal amounted to 1.11 in assay [3], 1.04 in assay [1] and 1.16 in assay [2]. CCTGAA: the binding signal in assay [1] was 1.42; in assay [2], 1.35. The like results for CGGTAT were, in that order, 1.07 and 0.978.

In the case of GCACAC, the results for the binding signal in assay [3], in assay [1] and in assay [2] were 0.938, 0.953 and 1.04, respectively. As to AGATTT, the binding signal in assay [1] was 1.09; in assay [2], 1.17.

With GGACCT, in assay [3], the binding signal worked out at 1.35.

CCAAAC: the figures for the binding signal in assay [1] and in assay [2] were 1.06 and 1.12, respectively. GGTTCC: the binding signal in assay [3] is 1.59; in assay [1] it was 1.59; in assay [2], 1.46.

TACGCG registered a binding signal in assay [3] of 1.06. In the case of TGTCCG, the figures for the binding signal in assay [1] and in assay [2] were 1.56 and 1.4, respectively. On to TGCGCC, for which the binding signal in assay [1] and in assay [2] was 1.27 in each case.

In assay [2], TCCTTA displayed a binding signal of 1.7.

The sequence TTAAGG had a binding signal in assay [3] of 1.13. The same measure, in the same setting: the same measure for CGCGTA: 0.987.

Sequence ATCCTT gave a binding signal in assay [2] of 1.58. As to CACATG, the binding signal is 0.987 in assay [1] and 1.03 in assay [2]. For the sequence GTCTCG, in assay [2], the binding signal was found to be 1.29. In assay [3], GCTACT yielded a binding signal of 1.33. Regarding AGTGCC, the binding signal in assay [3] is 0.974.

Consider GTTTCA, for which the binding signal in assay [2] came out at 1.35. Consider GGCTTG, for which the figures for the binding signal in assay [3] and in assay [2] were 0.97 and 0.986, respectively.

On to GTAATA, for which the binding signal in assay [3] was found to be 1.2. Still for that read-out and setting: the same measure for GGTTTG: 1.22.

With TGTACA, the binding signal in assay [1] turned out to be 1.35; in assay [2] it was 1.23.

Consider AACCTG, for which the binding signal in assay [3] was 1.22.

The values are drawn from publication PMC7862700.
